Assay results reported in the supplement of paper PMC4604168 (melanoma cell lines).
The list shows a part of the results. Repeats are few or missing, and single values can be far off.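 Cells were imaged in 1,536-well plates, and nuclei stained with an antibody against cleaved PARP were counted against all DNA-stained nuclei to give the apoptosis fraction. Screening doses were chosen to leave most cells alive, and resting and induced cleaved-PARP levels differ strongly between cell lines.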

How the values were obtained:
Test in all cases: cleaved PARP positive nuclei fraction relative to DMSO control; melanoma cells; higher = more apoptosis
Conditions in all cases: library dose: low library concentration; 72 h
[1] = test system: 501Mel
[2] = test system: A101D
[3] = test system: A2058
[4] = test system: A375
[5] = test system: C32
[6] = test system: CBRC013 (line from a melanoma biopsy)
[7] = test system: CBRC014 (line from a melanoma biopsy)
[8] = test system: CBRC016 (line from a melanoma biopsy)
[9] = test system: CBRC017 (line from a melanoma biopsy)
[10] = test system: CBRC034 (line from a melanoma biopsy)
[11] = test system: COLO792
[12] = test system: COLO800
[13] = test system: COLO829
[14] = test system: G361
[15] = test system: IPC-298
[16] = test system: IST-MEL1
[17] = test system: LB2518-MEL
[18] = test system: LOXIMVI
[19] = test system: CBRC008 (line from a melanoma biopsy)

| Structure (SMILES) | cleaved PARP positive nuclei fraction [1] [%] | cleaved PARP positive nuclei fraction [2] [%] | cleaved PARP positive nuclei fraction [3] [%] | cleaved PARP positive nuclei fraction [4] [%] | cleaved PARP positive nuclei fraction [5] [%] | cleaved PARP positive nuclei fraction [6] [%] | cleaved PARP positive nuclei fraction [7] [%] | cleaved PARP positive nuclei fraction [8] [%] | cleaved PARP positive nuclei fraction [9] [%] | cleaved PARP positive nuclei fraction [10] [%] | cleaved PARP positive nuclei fraction [11] [%] | cleaved PARP positive nuclei fraction [12] [%] | cleaved PARP positive nuclei fraction [13] [%] | cleaved PARP positive nuclei fraction [14] [%] | cleaved PARP positive nuclei fraction [15] [%] | cleaved PARP positive nuclei fraction [16] [%] | cleaved PARP positive nuclei fraction [17] [%] | cleaved PARP positive nuclei fraction [18] [%] | cleaved PARP positive nuclei fraction [19] [%] |
| --- | --- | --- | --- | --- | --- | --- | --- | --- | --- | --- | --- | --- | --- | --- | --- | --- | --- | --- | --- |
| C[C@]1(c2nc3c(C(N)=O)cccc3[nH]2)CCCN1 [Veliparib] + CC(C)CCN1c2nc(Nc3cc(F)c(O)c(F)c3)ncc2N(C)C(=O)C1C [BID1870] (first compound 1.4 µM, partner dose 0.2 µM) | 90.2 | 85.4 | 140 | 146 | 89.6 | 95.2 | 197 | 263 | 83.9 | 41.8 | 186 | 102 | 87.2 | 169 | 91.2 | 84.6 | 89.5 | 37.2 |  |
| OCCn1cc(-c2cnc3nnn(Cc4ccc5ncccc5c4)c3n2)cn1 + Cc1cc([N+](=O)[O-])ccc1NS(=O)(=O)c1cc(Cl)ccc1Cl [FH535] (first compound 1 µM, partner dose 1 µM) | 69.8 | 237 | 36.7 | 95.9 | 47.2 | 81.8 | 136 | 1610 | 259 | 190 | 117 | 120 | 184 | 314 | 131 | 35.1 | 73.6 | 67.2 |  |
| CC(C)(C)c1cnc(CSc2cnc(NC(=O)C3CCNCC3)s2)o1 + Cn1cc(/C=C2\C(=O)Nc3cccnc32)c2ccccc21 [GW441756] (first compound 0.01 µM, partner dose 0.4 µM) | 27 | 162 | 69.4 | 93.6 | 115 | 94.7 | 95.4 | 52.6 | 61.3 | 44.7 | 112 | 65.1 | 115 | 160 | 79 | 176 | 80.5 | 144 |  |
| Cn1cncc1[C@@](N)(c1ccc(Cl)cc1)c1ccc2c(c1)c(-c1cccc(Cl)c1)cc(=O)n2C [tipifarnib] + COc1cc(N2CCC(N3CCN(C)CC3)CC2)ccc1Nc1ncc(Cl)c(Nc2ccccc2S(=O)(=O)C(C)C)n1 [NVP-TAE684] (first compound 0.01 µM, partner dose 0.08 µM) | 98 | 240 | 368 | 294 | 183 | 328 | 103 | 40 | 90.1 | 668 | 148 | 62.3 | 90.3 | 144 | 87.4 | 119 | 103 | 314 |  |
| OCc1c[nH]c2ccccc12 [Indole-3-carbinol] + Cc1cc([N+](=O)[O-])ccc1NS(=O)(=O)c1cc(Cl)ccc1Cl [FH535] (first compound 0.8 µM, partner dose 1 µM) | 76.7 | 55.9 | 162 |  | 44.8 |  | 127 | 1150 | 1250 |  | 206 | 33.1 | 60.5 | 119 | 102 | 214 | 67.3 | 52.1 | 859 |
| CC1(C)NC(=O)N(c2ccc([N+](=O)[O-])c(C(F)(F)F)c2)C1=O [nilutamide] + c1cc(-c2cnn3cc(-c4ccc(OCCN5CCCCC5)cc4)cnc23)ccn1 [Dorsomorphin] (first compound 1 µM, partner dose 0.4 µM) | 82.7 | 183 | 59 | 134 | 143 | 67.2 | 106 | 23.6 | 116 | 94.4 | 55.9 | 80 | 114 | 52 | 80.3 | 271 | 85.7 | 98.5 |  |
| C#Cc1cccc(Nc2ncnc3cc(OCCOC)c(OCCOC)cc23)c1 [erlotinib] + COC(=O)c1sccc1S(=O)(=O)Nc1ccc(Nc2ccccc2)cc1OC [GSK0660] (first compound 0.8 µM, partner dose 1 µM) | 61 | 556 | 94.2 | 172 | 133 | 203 | 104 | 33.3 | 86.9 | 43.2 | 85.3 | 64.5 | 155 | 83 | 35.4 | 29 | 75.7 | 74 |  |
| C[C@@H]1CCN(C(=O)CC#N)C[C@@H]1N(C)c1ncnc2[nH]ccc12 + Oc1nc(-c2ccc(C(F)(F)F)cc2)nc2c1CSCC2 [XAV939] (first compound 1 µM, partner dose 2 µM) | 158 | 186 | 237 | 59.4 | 45.9 | 263 | 75.6 | 83 | 84.1 | 96 | 113 | 98.7 | 68 | 80.4 | 171 | 134 | 258 | 120 |  |
| C=CCNC1=C2C[C@@H](C)C[C@H](OC)[C@H](O)[C@@H](C)/C=C(\C)[C@H](OC(N)=O)[C@@H](OC)/C=C\C=C(/C)C(=O)NC(=CC1=O)C2=O [Tanespimycin] + CCc1ccc(CCOc2ccc(CC3SC(=O)NC3=O)cc2)nc1 [pioglitazone] (first compound 0.002 µM, partner dose 2 µM) | 150 | 8.33 | 143 |  | 163 |  | 95.7 | 196 | 71.4 |  | 160 | 94.1 | 37.6 | 119 | 36.5 | 122 | 33.8 | 133 | 270 |
